In paper PMC4457826:
Results are given in words; binding and its absence hold for the method and conditions named. Binding seen in cells or lysates may run through a third protein. Some binding calls cover weakened binding; strength is not graded here.

Sequences of proteins named here, by UniProt entry; tags and fusion partners are left off.
UniProt Q93009: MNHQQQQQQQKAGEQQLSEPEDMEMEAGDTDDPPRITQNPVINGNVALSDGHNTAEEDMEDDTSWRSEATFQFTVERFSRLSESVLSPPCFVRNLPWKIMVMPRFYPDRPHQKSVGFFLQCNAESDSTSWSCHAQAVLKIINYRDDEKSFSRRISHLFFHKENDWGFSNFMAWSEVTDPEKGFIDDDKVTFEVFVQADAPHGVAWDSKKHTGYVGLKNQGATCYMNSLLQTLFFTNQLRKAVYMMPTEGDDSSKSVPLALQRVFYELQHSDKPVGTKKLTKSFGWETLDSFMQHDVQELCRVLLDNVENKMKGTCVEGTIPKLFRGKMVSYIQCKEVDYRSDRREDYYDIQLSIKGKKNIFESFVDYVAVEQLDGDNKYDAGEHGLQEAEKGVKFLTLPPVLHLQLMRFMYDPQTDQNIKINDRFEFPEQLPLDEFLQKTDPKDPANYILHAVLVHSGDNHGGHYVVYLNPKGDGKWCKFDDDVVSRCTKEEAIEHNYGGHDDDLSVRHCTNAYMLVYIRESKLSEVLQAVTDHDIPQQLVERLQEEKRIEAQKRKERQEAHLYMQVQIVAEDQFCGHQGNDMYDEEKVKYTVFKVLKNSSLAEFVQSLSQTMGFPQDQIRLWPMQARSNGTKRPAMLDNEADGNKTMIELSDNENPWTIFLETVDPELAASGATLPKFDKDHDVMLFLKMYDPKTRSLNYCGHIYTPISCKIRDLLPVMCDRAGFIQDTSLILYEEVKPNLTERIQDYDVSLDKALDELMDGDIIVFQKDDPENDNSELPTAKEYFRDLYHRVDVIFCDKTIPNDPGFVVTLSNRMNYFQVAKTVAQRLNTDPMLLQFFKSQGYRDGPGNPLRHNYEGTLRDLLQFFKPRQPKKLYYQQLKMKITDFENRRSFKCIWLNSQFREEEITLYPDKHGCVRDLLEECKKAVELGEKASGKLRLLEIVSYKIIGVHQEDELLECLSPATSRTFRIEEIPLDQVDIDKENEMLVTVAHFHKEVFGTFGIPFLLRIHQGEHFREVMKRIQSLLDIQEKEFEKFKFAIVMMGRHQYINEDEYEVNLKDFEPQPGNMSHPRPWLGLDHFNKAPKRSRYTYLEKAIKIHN

Molecular target: myc-tagged WT USP7 (human) (UniProt Q93009)
Assay: co-IP; 293T cells transfected with myc-USP7 (with or without ICP0); RIPA lysate, anti-myc antibody and protein A/G agarose; Western blot for ICP0, GMPS or UHRF1

binding: binds
B1: endogenous UHRF1 (protein, UniProt Q96T88 1-793)
chain: MWIQVRTMDGRQTHTVDSLSRLTKVEELRRKIQELFHVEPGLQRLFYRGKQMEDGHTLFDYEVRLNDTIQLLVRQSLVLPHSTKERDSELSDTDSGCCLGQSESDKSSTHGEAAAETDSRPADEDMWDETELGLYKVNEYVDARDTNMGAWFEAQVVRVTRKAPSRDEPCSSTSRPALEEDVIYHVKYDDYPENGVVQMNSRDVRARARTIIKWQDLEVGQVVMLNYNPDNPKERGFWYDAEISRKRETRTARELYANVVLGDDSLNDCRIIFVDEVFKIERPGEGSPMVDNPMRRKSGPSCKHCKDDVNRLCRVCACHLCGGRQDPDKQLMCDECDMAFHIYCLDPPLSSVPSEDEWYCPECRNDASEVVLAGERLRESKKKAKMASATSSSQRDWGKGMACVGRTKECTIVPSNHYGPIPGIPVGTMWRFRVQVSESGVHRPHVAGIHGRSNDGAYSLVLAGGYEDDVDHGNFFTYTGSGGRDLSGNKRTAEQSCDQKLTNTNRALALNCFAPINDQEGAEAKDWRSGKPVRVVRNVKGGKNSKYAPAEGNRYDGIYKVVKYWPEKGKSGFLVWRYLLRRDDDEPGPWTKEGKDRIKKLGLTMQYPEGYLEALANREREKENSKREEEEQQEGGFASPRTGKGKWKRKSAGGGPSRAGSPRRTSKKTKVEPYSLTAQQSSLIREDKSNAKLWNEVLASLKDRPASGSPFQLFLSKVEETFQCICCQELVFRPITTVCQHNVCKDCLDRSFRAQVFSCPACRYDLGRSYAMQVNQPLQTVLNQLFPGYGNGR
